These are yes or no findings as the source states them, for the method shown. In cells and extracts the contact can be indirect. Some binding calls cover weakened binding; strength is not graded here.
Experiments:
G5_(845-1508)-L1367P-TAP = molecular target: T1, G5_(845-1508)-L1367P-TAP (human, UniProt Q8TEQ6 845-1508, L1367P); assay: co-IP; G5_(845-1508)-TAP baits expressed 24 h in HEK293; complexes purified by TAP (IgG Sepharose, TEV protease, calmodulin); endogenous Gemin5 and bait detected by WB with anti-Gemin5; Gemin5 intensity normalised to the purified bait
T1 construct: Vector pcDNA3-CTAP; Expressed at lower levels than the WT; also called RBS1 variant L1367P; source: HEK293, transfected, in soluble cell extract; purified by TAP
T1 sequence (looked up): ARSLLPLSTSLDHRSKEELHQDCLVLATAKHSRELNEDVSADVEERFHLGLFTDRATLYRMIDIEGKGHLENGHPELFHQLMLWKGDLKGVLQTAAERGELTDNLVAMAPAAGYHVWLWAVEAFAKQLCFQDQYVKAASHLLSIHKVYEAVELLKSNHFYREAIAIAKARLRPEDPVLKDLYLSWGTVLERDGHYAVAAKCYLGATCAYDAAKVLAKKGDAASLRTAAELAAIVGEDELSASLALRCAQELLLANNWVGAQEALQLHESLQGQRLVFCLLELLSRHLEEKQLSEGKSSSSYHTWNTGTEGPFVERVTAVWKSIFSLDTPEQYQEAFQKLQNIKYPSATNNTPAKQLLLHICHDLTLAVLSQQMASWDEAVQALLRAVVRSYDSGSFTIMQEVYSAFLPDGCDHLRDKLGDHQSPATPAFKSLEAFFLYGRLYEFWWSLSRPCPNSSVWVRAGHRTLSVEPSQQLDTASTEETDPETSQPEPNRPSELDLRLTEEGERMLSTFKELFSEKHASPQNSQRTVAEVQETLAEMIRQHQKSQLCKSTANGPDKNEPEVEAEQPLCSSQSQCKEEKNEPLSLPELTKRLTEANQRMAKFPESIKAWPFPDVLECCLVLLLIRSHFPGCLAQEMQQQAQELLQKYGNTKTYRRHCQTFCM

[1] = molecular target: G5_(845-1508)-WT-TAP (human) (UniProt Q8TEQ6); assay: as above

- binding (G5_(845-1508)-L1367P-TAP): binds
- binding [1]: binds
B1: endogenous Gemin5 protein (natural protein, human (endogenous in HEK293), UniProt Q8TEQ6 1-1508, looked up)
chain: MGQEPRTLPPSPNWYCARCSDAVPGGLFGFAARTSVFLVRVGPGAGESPGTPPFRVIGELVGHTERVSGFTFSHHPGQYNLCATSSDDGTVKIWDVETKTVVTEHALHQHTISTLHWSPRVKDLIVSGDEKGVVFCYWFNRNDSQHLFIEPRTIFCLTCSPHHEDLVAIGYKDGIVVIIDISKKGEVIHRLRGHDDEIHSIAWCPLPGEDCLSINQEETSEEAEITNGNAVAQAPVTKGCYLATGSKDQTIRIWSCSRGRGVMILKLPFLKRRGGGIDPTVKERLWLTLHWPSNQPTQLVSSCFGGELLQWDLTQSWRRKYTLFSASSEGQNHSRIVFNLCPLQTEDDKQLLLSTSMDRDVKCWDIATLECSWTLPSLGGFAYSLAFSSVDIGSLAIGVGDGMIRVWNTLSIKNNYDVKNFWQGVKSKVTALCWHPTKEGCLAFGTDDGKVGLYDTYSNKPPQISSTYHKKTVYTLAWGPPVPPMSLGGEGDRPSLALYSCGGEGIVLQHNPWKLSGEAFDINKLIRDTNSIKYKLPVHTEISWKADGKIMALGNEDGSIEIFQIPNLKLICTIQQHHKLVNTISWHHEHGSQPELSYLMASGSNNAVIYVHNLKTVIESSPESPVTITEPYRTLSGHTAKITSVAWSPHHDGRLVSASYDGTAQVWDALREEPLCNFRGHRGRLLCVAWSPLDPDCIYSGADDFCVHKWLTSMQDHSRPPQGKKSIELEKKRLSQPKAKPKKKKKPTLRTPVKLESIDGNEEESMKENSGPVENGVSDQEGEEQAREPELPCGLAPAVSREPVICTPVSSGFEKSKVTINNKVILLKKEPPKEKPETLIKKRKARSLLPLSTSLDHRSKEELHQDCLVLATAKHSRELNEDVSADVEERFHLGLFTDRATLYRMIDIEGKGHLENGHPELFHQLMLWKGDLKGVLQTAAERGELTDNLVAMAPAAGYHVWLWAVEAFAKQLCFQDQYVKAASHLLSIHKVYEAVELLKSNHFYREAIAIAKARLRPEDPVLKDLYLSWGTVLERDGHYAVAAKCYLGATCAYDAAKVLAKKGDAASLRTAAELAAIVGEDELSASLALRCAQELLLANNWVGAQEALQLHESLQGQRLVFCLLELLSRHLEEKQLSEGKSSSSYHTWNTGTEGPFVERVTAVWKSIFSLDTPEQYQEAFQKLQNIKYPSATNNTPAKQLLLHICHDLTLAVLSQQMASWDEAVQALLRAVVRSYDSGSFTIMQEVYSAFLPDGCDHLRDKLGDHQSPATPAFKSLEAFFLYGRLYEFWWSLSRPCPNSSVWVRAGHRTLSVEPSQQLDTASTEETDPETSQPEPNRPSELDLRLTEEGERMLSTFKELFSEKHASLQNSQRTVAEVQETLAEMIRQHQKSQLCKSTANGPDKNEPEVEAEQPLCSSQSQCKEEKNEPLSLPELTKRLTEANQRMAKFPESIKAWPFPDVLECCLVLLLIRSHFPGCLAQEMQQQAQELLQKYGNTKTYRRHCQTFCM
notes: Gemin5, human, full-length endogenous protein of HEK293 cells; also called full-length Gemin5; source: endogenous, HEK293 soluble cell extract
